Data taken from publication PMC4366199, “Arfaptin-1 Negatively Regulates Arl1-Mediated Retrograde Transport” (PLoS ONE, 2015).

Biological target: T1, GST-Arl1QL (Arf-like protein 1, Gln71 to Leu, putative active GTP-bound form) (human) (UniProt P40616)
T1 sequence: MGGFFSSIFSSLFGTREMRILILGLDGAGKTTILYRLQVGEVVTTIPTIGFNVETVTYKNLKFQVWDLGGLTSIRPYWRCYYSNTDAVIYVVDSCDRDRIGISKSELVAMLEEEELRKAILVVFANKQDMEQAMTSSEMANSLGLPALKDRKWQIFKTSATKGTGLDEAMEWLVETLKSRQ
Assay: affinity purification with mass spectrometry; differential affinity chromatography: immobilized GST-Arl1QL, GST-Arl1TN and GST control with HeLa cell proteins; one-dimensional SDS-PAGE and nano-LC-MS/MS; only the target purified

binding: binds
B1: arfaptin-1b (Arf-interacting protein 1b, long isoform), endogenous (natural protein, human (endogenous in HeLa), UniProt P53367 1-373, looked up)
chain: MAQESPKNSAAEIPVTSNGEVDDSREHSFNRDLKHSLPSGLGLSETQITSHGFDNTKEGVIEAGAFQGSPAPPLPSVMSPSRVAASRLAQQGSDLIVPAGGQRTQTKSGPVILADEIKNPAMEKLELVRKWSLNTYKCTRQIISEKLGRGSRTVDLELEAQIDILRDNKKKYENILKLAQTLSTQLFQMVHTQRQLGDAFADLSLKSLELHEEFGYNADTQKLLAKNGETLLGAINFFIASVNTLVNKTIEDTLMTVKQYESARIEYDAYRTDLEELNLGPRDANTLPKIEQSQHLFQAHKEKYDKMRNDVSVKLKFLEENKVKVLHNQLVLFHNAIAAYFAGNQKQLEQTLKQFHIKLKTPGVDAPSWLEEQ
notes: arfaptin-1b, long isoform of arfaptin-1 with an insertion (residues 69-100) absent from arfaptin-1a; source: endogenous, HeLa lysate

Results are given in words; binding and its absence hold for the method and conditions named. In cells and extracts the contact can be indirect. A yes stands for co-enrichment or nearness to the bait. Other partners may have been found. Tags and fused reporters may be left off the sequences shown.
